PubChem BioAssay AID652259 – Drosophila RNAi Screening Center, 2013
Aim: 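Knock-downs that push a Wingless-driven reporter up or down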 (primary screen). System: Drosophila clone 8 imaginal disc epithelial cells. Knock-down reagent: long dsRNA against Drosophila genes. Treatment: pathway stimulated by co-transfected Wingless expression plasmid. Detection: 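Dual luciferase reads per well after Wingless plasmid stimulation: reporter firefly light and Renilla control light; activity is firefly divided by Renilla, a ratio not deposited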. Direction: firefly reporter light: higher = more Wg reporter light, before normalisation; Renilla control light: higher = more transfected or surviving cells. Call rule: 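Strong candidates differ from their plate mean by at least two out of four per-plate statistical tests; weak candidates meet just one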. Calls: active = candidate regulator (raises or lowers reporter); inactive = not a candidate.
The deposit covers about 22,000 reagents; this is an unselected part of those that have a named target and a result. Of all reagents, 233 (1.1%) got an active call. 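Light values are raw, unnormalised plate reads; the ratio scores behind the reporter calls were not deposited.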 Reagents against one gene are numbered here. No sequences are given here. Not stated in the record: the amount of reagent, the time to read-out, the dose of the treatment.

CG13912 | firefly reporter light, replicate 1 = 4704; Renilla control light, replicate 1 = 2184; Outcome = inactive
CG13970 | firefly reporter light, replicate 1 = 2884; firefly reporter light, replicate 2 = 4272; Renilla control light, replicate 1 = 529; Renilla control light, replicate 2 = 1729; Outcome = inactive
CG5107 | firefly reporter light, replicate 1 = 2163; firefly reporter light, replicate 2 = 4921; Renilla control light, replicate 1 = 736; Renilla control light, replicate 2 = 1740; Outcome = inactive
CG14669 #1 | firefly reporter light, replicate 1 = 2336; Renilla control light, replicate 1 = 444; Outcome = inactive
CG14669 #2 | firefly reporter light, replicate 1 = 2551; Renilla control light, replicate 1 = 1365; Outcome = inactive
CG14669 #3 | firefly reporter light, replicate 1 = 4134; Renilla control light, replicate 1 = 2418; Outcome = inactive
CG14669 #4 | firefly reporter light, replicate 1 = 16720; Renilla control light, replicate 1 = 3696; Outcome = inactive
Tsp42A (Tetraspanin 42A) | firefly reporter light, replicate 1 = 2965; firefly reporter light, replicate 2 = 6758; Renilla control light, replicate 1 = 764; Renilla control light, replicate 2 = 2251; Outcome = inactive
bves #1 | firefly reporter light, replicate 1 = 13805; Renilla control light, replicate 1 = 9996; Outcome = inactive
bves #2 | firefly reporter light, replicate 1 = 19446; Renilla control light, replicate 1 = 11562; Outcome = inactive
bves #3 | firefly reporter light, replicate 1 = 17109; Renilla control light, replicate 1 = 10442; Outcome = inactive
mRpS11 (mitochondrial ribosomal protein S11) | firefly reporter light, replicate 1 = 15299; Renilla control light, replicate 1 = 3322; Outcome = inactive
CG6006 #1 | firefly reporter light, replicate 1 = 1344; Renilla control light, replicate 1 = 464; Outcome = inactive
CG6006 #2 | firefly reporter light, replicate 1 = 2007; firefly reporter light, replicate 2 = 4544; Renilla control light, replicate 1 = 512; Renilla control light, replicate 2 = 1649; Outcome = inactive
CG9416 | firefly reporter light, replicate 1 = 6993; Renilla control light, replicate 1 = 2568; Outcome = inactive
norpA (no receptor potential A) | firefly reporter light, replicate 1 = 3991; firefly reporter light, replicate 2 = 8026; Renilla control light, replicate 1 = 1800; Renilla control light, replicate 2 = 2570; Outcome = inactive
Rtc1 | firefly reporter light, replicate 1 = 1985; firefly reporter light, replicate 2 = 4850; Renilla control light, replicate 1 = 940; Renilla control light, replicate 2 = 2218; Outcome = inactive
flz (filzig) | firefly reporter light, replicate 1 = 5013; firefly reporter light, replicate 2 = 6856; Renilla control light, replicate 1 = 1248; Renilla control light, replicate 2 = 2832; Outcome = inactive
JIL-1 (JIL-1 kinase) | firefly reporter light, replicate 1 = 5600; Renilla control light, replicate 1 = 3222; Outcome = inactive
CR4575 (pseudo) | firefly reporter light, replicate 1 = 27889; Renilla control light, replicate 1 = 11692; Outcome = inactive
NijB (Ninjurin B) | firefly reporter light, replicate 1 = 3602; Renilla control light, replicate 1 = 1242; Outcome = inactive
Fad2 | firefly reporter light, replicate 1 = 4828; Renilla control light, replicate 1 = 1317; Outcome = inactive
CG8366 | firefly reporter light, replicate 1 = 8323; Renilla control light, replicate 1 = 2786; Outcome = inactive
Gr10a (Gustatory receptor 10a) #1 | firefly reporter light, replicate 1 = 5446; Renilla control light, replicate 1 = 3085; Outcome = inactive
Gr10a (Gustatory receptor 10a) #2 | firefly reporter light, replicate 1 = 6.92e5; firefly reporter light, replicate 2 = 6.97e5; Renilla control light, replicate 1 = 2.90e5; Renilla control light, replicate 2 = 3.25e5; Outcome = inactive

Taken from above.
Gr10a (Gustatory receptor 10a) #2, firefly reporter light, replicate 1 = 6.92e5
For “Renilla control light, replicate 1”, CG8366 reads 2786
flz (filzig), firefly reporter light, replicate 1 = 5013
